Results on 4 molecules are retold here after article PMC10894303.

Chains of the proteins cited; added tags and fusions are not shown.
UniProt Q16665: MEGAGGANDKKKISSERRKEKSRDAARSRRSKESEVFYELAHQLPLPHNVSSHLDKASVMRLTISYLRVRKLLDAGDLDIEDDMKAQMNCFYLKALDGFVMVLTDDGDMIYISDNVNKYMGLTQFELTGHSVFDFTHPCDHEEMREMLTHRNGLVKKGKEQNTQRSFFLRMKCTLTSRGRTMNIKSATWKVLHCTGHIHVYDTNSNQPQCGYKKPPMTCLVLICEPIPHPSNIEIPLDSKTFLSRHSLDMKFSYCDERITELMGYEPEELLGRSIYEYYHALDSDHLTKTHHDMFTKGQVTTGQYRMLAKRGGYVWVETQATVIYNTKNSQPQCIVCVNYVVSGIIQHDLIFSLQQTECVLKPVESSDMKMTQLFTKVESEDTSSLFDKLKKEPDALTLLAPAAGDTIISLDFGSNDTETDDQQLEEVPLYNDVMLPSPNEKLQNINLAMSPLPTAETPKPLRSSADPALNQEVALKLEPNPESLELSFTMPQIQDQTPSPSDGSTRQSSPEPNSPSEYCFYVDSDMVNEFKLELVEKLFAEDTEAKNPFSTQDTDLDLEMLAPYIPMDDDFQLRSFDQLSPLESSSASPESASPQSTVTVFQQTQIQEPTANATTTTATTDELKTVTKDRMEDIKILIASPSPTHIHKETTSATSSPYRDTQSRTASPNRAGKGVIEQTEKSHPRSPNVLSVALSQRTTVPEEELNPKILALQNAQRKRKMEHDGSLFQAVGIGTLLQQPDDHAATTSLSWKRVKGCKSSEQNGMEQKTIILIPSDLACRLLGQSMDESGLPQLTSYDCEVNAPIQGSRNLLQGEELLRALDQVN
UniProt Q93009: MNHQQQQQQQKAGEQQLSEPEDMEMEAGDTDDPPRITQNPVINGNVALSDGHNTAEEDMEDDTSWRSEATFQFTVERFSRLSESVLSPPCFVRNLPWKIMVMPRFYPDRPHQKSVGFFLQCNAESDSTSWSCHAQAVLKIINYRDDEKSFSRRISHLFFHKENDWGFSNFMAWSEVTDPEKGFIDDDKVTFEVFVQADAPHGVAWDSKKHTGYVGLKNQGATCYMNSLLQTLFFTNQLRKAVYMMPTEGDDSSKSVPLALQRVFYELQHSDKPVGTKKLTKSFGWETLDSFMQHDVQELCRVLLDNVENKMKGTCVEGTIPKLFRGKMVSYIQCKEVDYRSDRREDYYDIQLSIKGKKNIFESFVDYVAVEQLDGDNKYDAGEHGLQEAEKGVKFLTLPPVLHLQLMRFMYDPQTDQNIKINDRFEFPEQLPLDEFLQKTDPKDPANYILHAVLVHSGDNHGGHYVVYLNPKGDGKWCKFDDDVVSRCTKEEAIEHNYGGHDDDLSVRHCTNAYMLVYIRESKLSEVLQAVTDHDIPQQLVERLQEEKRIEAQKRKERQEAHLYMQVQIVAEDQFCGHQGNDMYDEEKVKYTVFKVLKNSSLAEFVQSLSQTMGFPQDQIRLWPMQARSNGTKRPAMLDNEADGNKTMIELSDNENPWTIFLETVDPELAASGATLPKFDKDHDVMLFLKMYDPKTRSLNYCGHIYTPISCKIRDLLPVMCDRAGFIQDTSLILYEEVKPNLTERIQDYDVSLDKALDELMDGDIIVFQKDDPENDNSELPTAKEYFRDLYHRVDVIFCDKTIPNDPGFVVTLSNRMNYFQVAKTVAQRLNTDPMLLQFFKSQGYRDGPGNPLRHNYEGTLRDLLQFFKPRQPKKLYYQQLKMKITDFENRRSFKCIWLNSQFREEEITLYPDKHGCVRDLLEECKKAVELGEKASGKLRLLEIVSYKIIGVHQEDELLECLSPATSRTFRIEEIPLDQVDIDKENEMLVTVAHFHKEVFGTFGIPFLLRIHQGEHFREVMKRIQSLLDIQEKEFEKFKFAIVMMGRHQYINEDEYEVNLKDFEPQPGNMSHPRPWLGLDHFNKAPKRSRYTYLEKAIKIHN

Results are given in words; binding and its absence hold for the method and conditions named. In cells and extracts the contact can be indirect. Some entries that bind do so weakly or less than the wild type. For some assays here: Sequences can lack the tags named with a protein.

The target in one assay is T1, GST-tagged Pol ι (UniProt Q9UNA4).
T1 sequence: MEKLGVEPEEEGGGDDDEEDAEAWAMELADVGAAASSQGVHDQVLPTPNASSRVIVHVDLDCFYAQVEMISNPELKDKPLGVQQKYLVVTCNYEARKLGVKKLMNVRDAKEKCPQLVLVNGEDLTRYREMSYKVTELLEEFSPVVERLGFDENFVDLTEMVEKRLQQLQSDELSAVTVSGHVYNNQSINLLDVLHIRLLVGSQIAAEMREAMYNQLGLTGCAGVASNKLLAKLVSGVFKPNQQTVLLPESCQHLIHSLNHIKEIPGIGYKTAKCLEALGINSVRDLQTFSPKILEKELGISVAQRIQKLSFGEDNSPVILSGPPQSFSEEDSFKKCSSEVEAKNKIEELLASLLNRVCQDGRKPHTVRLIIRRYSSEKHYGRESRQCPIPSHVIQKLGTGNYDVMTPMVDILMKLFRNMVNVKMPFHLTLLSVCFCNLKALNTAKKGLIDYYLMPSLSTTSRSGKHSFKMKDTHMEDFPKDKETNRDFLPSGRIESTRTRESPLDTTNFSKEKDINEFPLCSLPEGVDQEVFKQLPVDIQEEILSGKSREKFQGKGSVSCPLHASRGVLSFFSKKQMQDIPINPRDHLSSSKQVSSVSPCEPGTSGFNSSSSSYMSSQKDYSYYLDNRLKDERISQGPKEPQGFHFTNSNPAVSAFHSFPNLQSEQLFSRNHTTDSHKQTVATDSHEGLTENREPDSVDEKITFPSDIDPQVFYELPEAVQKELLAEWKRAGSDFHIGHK
The assay can be described thus: pull-down; GST-tagged Pol ι from E. coli BL21 immobilized on glutathione sepharose beads, mixed with lysates of HEK293T cells expressing MYC-USP7 and HA-HIF-1α; western blot; only the target purified. (In western blotting, separated proteins are transferred to a membrane and probed.)

For assay [1], the target named is T2, Flag-Pol ι (DNA polymerase iota, wild type) (UniProt Q9UNA4).
T2 sequence: T1 sequence
The assay can be described thus: co-IP; HEK293T cells co-transfected with Flag-Pol ι (WT or deletion mutants), Myc-USP7 and HA-HIF-1α; M-PER lysis buffer; anti-Flag, anti-Myc and anti-HA agarose beads; western blot.

The next assay addresses HA-HIF-1α (UniProt Q16665). Described as above.
In assay [2] the target is T3, DNA polymerase iota (Pol ι), endogenous in ESCC cells (human (endogenous in TE-1 and ECA-109)) (UniProt Q9UNA4).
T3 sequence: T1 sequence
The assay is described as follows: co-IP; endogenous proteins in TE-1 and ECA-109 cells; anti-HIF-1α antibody, protein G magnetic beads, rabbit IgG as negative control; cells under 20% O2 or 1% O2, with Pol ι/USP7 knockdown or overexpression.

Assay [3] concerns the target HIF-1α, endogenous in ESCC cells (human (endogenous in TE-1 and ECA-109)) (UniProt Q16665). The assay is described as above.

As to “Myc-USP7 (from UniProt Q93009 1-1102) (enzyme)”, the binding result (in the assay with GST-tagged Pol ι; in assay [1]; in the assay with HA-HIF-1α) was “binds” throughout.
Consider “USP7, endogenous in ESCC cells (from UniProt Q93009 1-1102) (enzyme)”, for which the binding entry in assay [2] and in assay [3] was “binds” each time.
Take HA-HIF-1α (from UniProt Q16665 1-826): the binding entry (with GST-tagged Pol ι; in assay [1]) was “binds” each time.

B1: DNA polymerase iota (Pol ι), endogenous in ESCC cells (enzyme, UniProt Q9UNA4 1-740)
chain: T1 sequence
As to B1, the binding result in assay [3] is “binds”.
